{"source": "patent US20020110808A1", "about": "“Toxicant-induced differential gene expression” (priority 2000, published 2002)", "key": {"HepG2 cells [1]": {"system": "HepG2 cells", "experiment": "BrdU incorporation cell proliferation assay", "format": "cell-based, human", "conditions": "24 hr, 20 mM acetaminophen, 16 mM caffeine or 100 mM thioacetamide", "experimental": "HepG2 cells (see e.g., Aden et al., Nature 282:615-616 (1979)) (ATCC HB-8065) were maintained in DMEM/F-12 medium with 10% fetal bovine serum and 1% antibiotic/antimycotic. For routine culturing and mRNA preps, cells were grown in 75 cm^2 flasks and split every 4-5 days. For plate assays, cells were plated in 96-well microtiter plates at 1×10^5 cells per well in 100 μl of growth medium.\nDepending on the desired exposure time, cell treatments began 3 or 4 days after splitting or plating. At this time, the cells were near or at confluency. […] Cell treatments were at 37° C.\nUptake of 5-bromo-2′-deoxyuridine (BrdU) was measured using the Cell Proliferation ELISA kit from Boehringer-Mannheim (Indianapolis, Ind.).\nCell proliferation assays based on measurement of BrdU incorporation were performed according to the manufacturer's instructions (Boehringer Mannheim “Cell Proliferation ELISA Kit”)."}, "HepG2 cells [2]": {"system": "HepG2 cells", "experiment": "cDNA array (GF200) expression profiling", "format": "cell-based, human", "conditions": "up-regulation", "experimental": "Cells were grown in DMEM/F12 medium with 10% fetal bovine serum in tissue culture flasks for 3 days following splitting, at which time they were at or near confluency. […] For each treated sample, an untreated control flask was set up with the same medium. Following the treatment period, mRNA was isolated by affinity purification on oligo(dT) cellulose resin using the Poly(A) Pure mRNA isolation kit from Ambion. RNA quality was assessed by agarose gel electrophoresis, and yields were determined by absorbance at 260 nm.\nRadiolabeled cDNA for array hybridizations were prepared as follows. To a solution of 2 μg of RNA in 8 μl DEPC-treated water was added 2 μl of 1 μg/μl oligo(dT) (10-20 mer mixture, Research Genetics). After incubation for 10 min at 70° C., the solution was chilled on ice for 2 min, and then added to 6 μl of 5× first strand buffer (250 mM Tris-HCl (pH 8.3), 375 mM KCl, 15 mM MgCl2; Gibco-BRL), 1 μl of 0.1M DTT, 1.5 μl dNTP mix (20 mM each dATP, dGTP and dTTP), 10 μl of 10 mCi/ml [α-^33P]dCTP (1000 Ci/mmol, Amersham), and 1.5 μl of 200 U/μl reverse transcriptase (Superscript II, Gibco-BRL). Following a 90 min incubation at 37° C., cDNA targets were purified by passage through G-50 Sephadex spin columns (Pharmacia) or Bio-Spin 6 columns (BioRad). […]\nSpot intensities were determined using Pathways software (Research Genetics). […]"}}, "note": "“And” between values parts separate entries of the source, which are not always exact repeats. Identical values can stand only once. Some entries share one result that the patent states for a list of compounds."}
{"compound": "CC(=N)S", "note": "[thioacetamide]", "values": [{"measurement": "Inhibition of BrdU uptake (cell proliferation)", "setting": "HepG2 cells [1]", "value": "67 to 80% and 67-80%"}, {"measurement": "Changes in expression of the five metallothionein forms on arrays", "setting": "HepG2 cells [2]", "value": "14- to 23 fold"}]}
